Source: publication PMC5564724
No constants are given. Whether binding was seen depends on the method and setting. Binding seen in cells or lysates may run through a third protein. A result given as binding can be weak or reduced; the word gives no strength.

Biological target: T1, p130cas (human (endogenous in HCT116)) (UniProt P56945)
T1 sequence: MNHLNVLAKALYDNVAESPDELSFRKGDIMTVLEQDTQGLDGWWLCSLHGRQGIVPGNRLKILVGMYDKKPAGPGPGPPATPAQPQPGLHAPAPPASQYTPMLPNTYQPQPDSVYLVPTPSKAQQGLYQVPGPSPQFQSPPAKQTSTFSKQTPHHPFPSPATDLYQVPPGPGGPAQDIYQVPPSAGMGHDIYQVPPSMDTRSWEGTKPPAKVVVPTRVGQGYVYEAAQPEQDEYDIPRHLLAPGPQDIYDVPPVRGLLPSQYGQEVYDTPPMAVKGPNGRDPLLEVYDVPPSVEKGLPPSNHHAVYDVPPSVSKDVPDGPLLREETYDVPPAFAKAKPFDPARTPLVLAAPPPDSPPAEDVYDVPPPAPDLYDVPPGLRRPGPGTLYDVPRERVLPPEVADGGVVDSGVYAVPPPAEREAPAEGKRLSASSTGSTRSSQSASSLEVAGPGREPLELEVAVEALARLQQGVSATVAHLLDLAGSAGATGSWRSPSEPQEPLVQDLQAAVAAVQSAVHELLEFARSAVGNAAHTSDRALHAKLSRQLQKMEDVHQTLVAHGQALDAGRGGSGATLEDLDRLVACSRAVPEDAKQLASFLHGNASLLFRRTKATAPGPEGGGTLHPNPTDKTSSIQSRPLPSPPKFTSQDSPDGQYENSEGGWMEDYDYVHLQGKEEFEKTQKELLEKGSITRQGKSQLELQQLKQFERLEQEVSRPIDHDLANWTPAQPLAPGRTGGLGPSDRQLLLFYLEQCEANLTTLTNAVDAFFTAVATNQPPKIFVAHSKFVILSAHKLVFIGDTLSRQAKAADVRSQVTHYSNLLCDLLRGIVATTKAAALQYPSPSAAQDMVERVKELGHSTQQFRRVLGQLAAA
Experiment: co-IP; HCT116 parental or paxillin Y88F knock-in cells, starved overnight and stimulated with 30 ng/ml PDGF-AA for one hour; Flag lysis buffer (50 mM Tris-HCl pH 7.5, 1 mM EDTA, 150 mM NaCl, 1% Triton X-100); lysates immunoprecipitated with anti-p130cas antibody, blotted for p85

- binding: binds
Substance: p85 regulatory subunit of PI3-Kinase (human (endogenous in HCT116))
